The target in assay [1] is FLAG-tagged XIAP single amino acid mutant G188E (UniProt P98170). Kind of assay: co-IP; FLAG-tagged XIAP (wild type or mutants) transfected into HEK 293T cells, synchronized in mitosis with nocodazole or left untreated (also prolonged taxol); endogenous USP9X detected by blot; lysis buffer Tris-HCl 50 mM, NaCl 150 mM, EDTA 1 mM, Triton X-100 1%.
Assay [2] concerns the target FLAG-tagged XIAP (X-linked inhibitor of apoptosis protein), wild type (UniProt P98170). The assay is described as above.
The target in assay [3] is FLAG-tagged XIAP single amino acid mutant G188R (UniProt P98170). Described as above.
Assay [4] concerns the target FLAG-tagged XIAP (X-linked inhibitor of apoptosis protein), wild type (UniProt P98170). Kind of assay: condition: only cells treated with the SMAC mimetic BV6; co-IP; FLAG-tagged XIAP with endogenous USP9X from HEK 293T cells treated with the SMAC mimetic BV6 as specified and nocodazole for 12 h.

Sequences of proteins named here, by UniProt entry; tags and fusion partners are left off. A change or cut given only in a name is not applied to a line headed by its entry.
UniProt P98170: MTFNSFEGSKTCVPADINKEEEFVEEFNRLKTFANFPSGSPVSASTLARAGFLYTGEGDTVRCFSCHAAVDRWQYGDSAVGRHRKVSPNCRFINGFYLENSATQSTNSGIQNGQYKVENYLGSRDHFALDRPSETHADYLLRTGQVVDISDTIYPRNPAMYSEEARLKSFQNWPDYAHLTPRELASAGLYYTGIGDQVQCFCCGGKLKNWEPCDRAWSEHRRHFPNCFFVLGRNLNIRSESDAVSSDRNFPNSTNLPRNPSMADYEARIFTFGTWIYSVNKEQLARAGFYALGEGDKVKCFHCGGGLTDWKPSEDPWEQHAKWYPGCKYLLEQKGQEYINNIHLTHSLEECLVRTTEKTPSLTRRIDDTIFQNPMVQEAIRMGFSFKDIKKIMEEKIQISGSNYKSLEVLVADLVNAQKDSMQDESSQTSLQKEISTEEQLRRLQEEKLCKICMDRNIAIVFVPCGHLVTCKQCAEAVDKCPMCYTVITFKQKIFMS
UniProt Q93008: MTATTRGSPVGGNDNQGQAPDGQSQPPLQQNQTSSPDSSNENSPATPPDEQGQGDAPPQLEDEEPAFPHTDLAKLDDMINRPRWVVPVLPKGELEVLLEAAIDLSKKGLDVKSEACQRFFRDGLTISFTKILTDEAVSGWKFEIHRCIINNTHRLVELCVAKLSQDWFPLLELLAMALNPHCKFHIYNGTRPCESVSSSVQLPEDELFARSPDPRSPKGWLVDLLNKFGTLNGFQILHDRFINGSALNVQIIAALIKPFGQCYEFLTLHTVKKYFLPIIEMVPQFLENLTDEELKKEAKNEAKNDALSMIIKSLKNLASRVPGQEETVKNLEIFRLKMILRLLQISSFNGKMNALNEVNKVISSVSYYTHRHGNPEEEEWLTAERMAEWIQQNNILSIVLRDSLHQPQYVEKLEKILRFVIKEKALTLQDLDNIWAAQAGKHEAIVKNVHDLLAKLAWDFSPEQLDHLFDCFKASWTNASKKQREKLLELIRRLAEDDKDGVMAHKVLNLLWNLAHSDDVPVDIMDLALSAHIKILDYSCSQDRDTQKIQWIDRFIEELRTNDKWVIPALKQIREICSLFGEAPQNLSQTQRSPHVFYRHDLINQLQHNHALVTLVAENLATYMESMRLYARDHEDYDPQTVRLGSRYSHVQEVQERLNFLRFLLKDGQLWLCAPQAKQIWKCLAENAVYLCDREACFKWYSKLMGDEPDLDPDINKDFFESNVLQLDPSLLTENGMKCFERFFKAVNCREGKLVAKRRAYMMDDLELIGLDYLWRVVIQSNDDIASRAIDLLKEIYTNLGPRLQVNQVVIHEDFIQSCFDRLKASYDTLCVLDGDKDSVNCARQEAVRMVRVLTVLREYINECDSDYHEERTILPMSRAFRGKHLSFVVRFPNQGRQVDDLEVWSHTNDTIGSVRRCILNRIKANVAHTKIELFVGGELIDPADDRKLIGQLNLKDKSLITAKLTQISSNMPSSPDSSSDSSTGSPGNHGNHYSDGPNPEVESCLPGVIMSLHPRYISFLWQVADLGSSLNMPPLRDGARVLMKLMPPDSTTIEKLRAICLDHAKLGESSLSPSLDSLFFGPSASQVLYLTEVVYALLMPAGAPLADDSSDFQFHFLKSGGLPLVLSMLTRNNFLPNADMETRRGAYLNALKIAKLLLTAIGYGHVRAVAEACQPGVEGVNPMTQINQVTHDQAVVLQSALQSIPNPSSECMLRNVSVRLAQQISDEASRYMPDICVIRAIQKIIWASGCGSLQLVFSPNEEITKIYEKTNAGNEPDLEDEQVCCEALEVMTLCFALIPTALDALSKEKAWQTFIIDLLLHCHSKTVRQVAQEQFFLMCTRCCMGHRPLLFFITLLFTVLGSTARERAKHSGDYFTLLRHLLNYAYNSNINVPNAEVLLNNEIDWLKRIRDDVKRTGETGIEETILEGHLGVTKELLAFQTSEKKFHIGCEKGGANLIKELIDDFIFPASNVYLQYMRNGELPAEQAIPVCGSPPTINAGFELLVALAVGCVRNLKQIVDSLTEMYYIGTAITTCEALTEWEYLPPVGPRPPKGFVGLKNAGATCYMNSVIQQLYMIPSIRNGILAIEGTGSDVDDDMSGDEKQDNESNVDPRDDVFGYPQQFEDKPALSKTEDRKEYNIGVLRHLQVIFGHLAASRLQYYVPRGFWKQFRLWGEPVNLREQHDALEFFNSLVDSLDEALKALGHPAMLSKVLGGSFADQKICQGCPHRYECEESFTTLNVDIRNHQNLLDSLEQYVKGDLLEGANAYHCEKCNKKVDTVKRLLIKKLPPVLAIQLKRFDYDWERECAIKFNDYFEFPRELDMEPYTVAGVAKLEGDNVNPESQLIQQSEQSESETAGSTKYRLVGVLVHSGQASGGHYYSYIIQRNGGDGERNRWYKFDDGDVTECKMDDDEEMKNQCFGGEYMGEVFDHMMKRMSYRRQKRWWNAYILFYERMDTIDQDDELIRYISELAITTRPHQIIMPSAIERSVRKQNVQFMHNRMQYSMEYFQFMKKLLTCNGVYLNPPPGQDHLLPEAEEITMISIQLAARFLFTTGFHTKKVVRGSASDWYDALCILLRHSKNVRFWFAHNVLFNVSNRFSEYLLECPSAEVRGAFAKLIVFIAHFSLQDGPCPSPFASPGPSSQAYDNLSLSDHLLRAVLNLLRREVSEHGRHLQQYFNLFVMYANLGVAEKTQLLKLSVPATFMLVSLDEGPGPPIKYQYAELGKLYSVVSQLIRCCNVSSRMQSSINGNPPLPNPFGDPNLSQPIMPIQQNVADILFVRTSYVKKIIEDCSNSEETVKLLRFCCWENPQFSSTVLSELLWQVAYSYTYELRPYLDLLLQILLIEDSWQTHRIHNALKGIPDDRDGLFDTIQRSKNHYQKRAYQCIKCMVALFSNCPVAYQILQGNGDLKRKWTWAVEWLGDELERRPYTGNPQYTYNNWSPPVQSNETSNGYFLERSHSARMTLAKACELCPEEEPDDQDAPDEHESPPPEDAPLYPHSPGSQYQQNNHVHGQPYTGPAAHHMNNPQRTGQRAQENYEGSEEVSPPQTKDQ

These are yes or no findings as the source states them, for the method shown. Binding seen in cells or lysates may run through a third protein. Some results given as binding are weak or reduced against the parent protein; the word gives no strength.

For the substance “ubiquitin-specific protease 9X (USP9X), endogenous (from UniProt Q93008 1-2554) (enzyme)”, the binding entry in assay [1] is reported as “no binding”; in assay [2], “binds”; in assay [3], “no binding”; in assay [4] it was “no binding”.
